These are yes or no findings as the source states them, for the method shown. Some results given as binding are weak or reduced against the parent protein; the word gives no strength.
Target: ecotin (UniProt P23827)
Test: affinity chromatography on immobilised ecotin

The chains behind the UniProt entries cited, without tags or fusion partners. Where a name states a change or a piece, a line headed by the entry shows the natural chain unless it says otherwise. Residues count along the entry.
UniProt P23827, residues 21-162: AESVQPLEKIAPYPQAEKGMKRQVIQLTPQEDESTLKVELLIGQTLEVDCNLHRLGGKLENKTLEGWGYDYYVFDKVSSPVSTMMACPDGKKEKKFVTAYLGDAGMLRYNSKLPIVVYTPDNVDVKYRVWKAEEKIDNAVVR
UniProt P07477: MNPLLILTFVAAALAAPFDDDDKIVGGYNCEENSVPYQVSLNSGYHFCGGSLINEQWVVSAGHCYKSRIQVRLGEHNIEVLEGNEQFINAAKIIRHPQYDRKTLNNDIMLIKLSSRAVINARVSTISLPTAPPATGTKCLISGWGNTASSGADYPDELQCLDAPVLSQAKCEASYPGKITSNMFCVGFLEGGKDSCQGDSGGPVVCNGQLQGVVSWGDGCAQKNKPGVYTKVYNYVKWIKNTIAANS

- binding: binds
Substance: supercharged variant of human trypsinogen-1 (PRSS1 sc) (from UniProt P07477 18-247) (enzyme)

— patent US20160237419A1
